Drawing on PubChem BioAssay AID2685 (National Center for Advancing Translational Sciences (NCATS), 2010), this text covers cell number change and AC50 for 18 molecules.

Some of the results follow. These are further read-outs of the screen, such as a control signal, another cell line or another target. No call is given for them. The list favours compounds with an active or inconclusive main result. Potencies come from curve fits of mixed quality, noted in brackets.

A short description of this test: qHTS Assay for Lipid Storage Modulators in Drosophila S3 Cells.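 For cell number change: cells counted by Cell Tracker Red CMTPX staining in the red channel.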 The following applies: BODIPY lipid droplet fluorescence, 18-24 h; for cell number change: measured here: cell count max response, cells fed with added oleic acid. The essentials: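 Drosophila S3 cells loaded with oleic acid (400 uM, as added) and compounds at several concentrations; lipid droplets imaged by 488-nm laser-scanning cytometry, 500–530 nm intensity and object ratio to cell channel. Percent activity normalized to 20 uM Triacsin C.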
On the technique in general: Quantitative high-throughput screening tests each substance at several concentrations.

[1] abbreviates: measured here: lipid fluorescence (Fed channel) AC50, cells fed with added oleic acid.
[2] abbreviates: measured here: cell number channel AC50, cells fed with added oleic acid.

As usually defined, the AC50 is the concentration giving half of the maximal activity seen. Read a high AC50 as activity only at high concentration. Turning to `COc1cc([N+](=O)[O-])c2ncsc2c1`, the cell number change turned out to be 9.45%. For the same molecule, the AC50 under setting [1] is 0.0058 µM [rising, full curve, poor fit].

On to `CSCC[C@H](NC(=O)COc1ccc(Cl)cc1)c1nc2ccccc2[nH]1`, for which the cell number change was -18.3%. The AC50 under setting [1] is 18.4 µM [rising, single point].

On to `Cc1nc(SCC(=O)Nc2ccc(F)cc2)c2oc3ccccc3c2n1`, for which the cell number change was 12.2%. Besides, the AC50 under setting [1] is 20.6 µM [rising, partial curve].

As for `Nc1cc([N+](=O)[O-])cc2oc(-c3ccccc3)cc12`, the cell number change was -58.2%. Besides, the AC50 under setting [2] was 29.1 µM [falling, single point]. Further, the AC50 under setting [1] was 5.17 µM [falling, full curve].

Turning to `COc1ccc(C(C)=O)cc1CN(C)C`, the cell number change is -1.38%. The AC50 under setting [1] is 0.58 µM [falling, full curve, poor fit].

Take `O=C(Oc1ccc([N+](=O)[O-])cc1)c1cc(-c2ccccc2)nc2ccccc12`: the AC50 under setting [1] was 29.1 µM [rising, single point].

With `Cc1ccc(S(=O)(=O)c2nc(-c3ccco3)oc2SCC(N)=O)cc1`, the cell number change amounted to 14.4%. Besides, the AC50 under setting [1] is 6.51 µM [rising, partial curve, poor fit].

For `O=C(CSc1nc2ccccc2nc1SCC(=O)N1CCOCC1)N1CCOCC1`, the AC50 under setting [2] is 2.06 µM [rising, partial curve].

Regarding `C/C(=N\NC(=O)c1ccc2ccccc2c1)c1cccnc1`, the cell number change came out at 4.11%. The AC50 under setting [2] was 2.06 µM [rising, partial curve, poor fit]. Besides, the AC50 under setting [1] is 3.66 µM [rising, single point].

`COc1cc(CNc2ncnc3c2[nH]c2ccc(C)cc23)cc(OC)c1`: the cell number change is -43.4%. For the same molecule, the AC50 under setting [2] is 5.17 µM [falling, partial curve, poor fit]. For the same molecule, the AC50 under setting [1] was 0.103 µM [rising, full curve, poor fit].

`O=C1C=C(N2CCOCC2)C2(CCCCC2)O1`: the cell number change was -23.1%.

For `O=C1c2ccccc2C(=O)N1S(=O)(=O)c1ccccc1`, the cell number change was 12.9%.

For `CCCNC(=O)Cn1cnc2sc(C(=O)N3CCN(CCC)CC3)c(C)c2c1=O`, the AC50 under setting [1] was 0.00461 µM [falling, full curve].

For the molecule `CN(Cc1ccccc1)C1(CNC(=O)CCC(F)(F)F)Cc2ccccc2C1`, the cell number change came to 24.6%.

With `CCCCOC(=O)c1ccc(N=Nc2c(C)c(C#N)c(O)[nH]c2=O)cc1`, the AC50 under setting [2] was 0.291 µM [rising, full curve].

On to `COCCn1cc(C(=O)NCCCOC(C)C)c2c3ccccc3n(C)c2c1=O`, for which the cell number change came to 35.1%. In addition, the AC50 under setting [2] is 16.4 µM [rising, single point].

Regarding `Cc1nn(C)cc1CNC(=O)Nc1ccc(Br)cc1Cl`, under setting [1], the AC50 is 3.26 µM [rising, partial curve].

As for `Cc1ccccc1C(=O)NC(=S)Nc1ccccc1C(F)(F)F`, the cell number change worked out at 78%. The AC50 under setting [2] is 7.31 µM [rising, partial curve, poor fit].
